For assay [1], the target named is Apolipoprotein B (ApoB), endogenous in mouse liver and primary hepatocytes (mouse (endogenous in C57BL/6J liver and primary hepatocytes)) (UniProt E9Q414). The experiment in a line: co-IP; mouse primary hepatocyte lysate (50 mM Tris-HCl pH 7.5, 250 mM NaCl, 1% NP-40, 1 mM EDTA, 1 mM DTT); ApoB antibody or rabbit IgG at 4 °C overnight, Protein A agarose, immunoblot of MDM2. For orientation: Immunoblotting shows a protein as a band on a membrane.

Chains of the proteins cited; added tags and fusions are not shown. Residues count along the entry.
UniProt E9Q414, residues 28-4505: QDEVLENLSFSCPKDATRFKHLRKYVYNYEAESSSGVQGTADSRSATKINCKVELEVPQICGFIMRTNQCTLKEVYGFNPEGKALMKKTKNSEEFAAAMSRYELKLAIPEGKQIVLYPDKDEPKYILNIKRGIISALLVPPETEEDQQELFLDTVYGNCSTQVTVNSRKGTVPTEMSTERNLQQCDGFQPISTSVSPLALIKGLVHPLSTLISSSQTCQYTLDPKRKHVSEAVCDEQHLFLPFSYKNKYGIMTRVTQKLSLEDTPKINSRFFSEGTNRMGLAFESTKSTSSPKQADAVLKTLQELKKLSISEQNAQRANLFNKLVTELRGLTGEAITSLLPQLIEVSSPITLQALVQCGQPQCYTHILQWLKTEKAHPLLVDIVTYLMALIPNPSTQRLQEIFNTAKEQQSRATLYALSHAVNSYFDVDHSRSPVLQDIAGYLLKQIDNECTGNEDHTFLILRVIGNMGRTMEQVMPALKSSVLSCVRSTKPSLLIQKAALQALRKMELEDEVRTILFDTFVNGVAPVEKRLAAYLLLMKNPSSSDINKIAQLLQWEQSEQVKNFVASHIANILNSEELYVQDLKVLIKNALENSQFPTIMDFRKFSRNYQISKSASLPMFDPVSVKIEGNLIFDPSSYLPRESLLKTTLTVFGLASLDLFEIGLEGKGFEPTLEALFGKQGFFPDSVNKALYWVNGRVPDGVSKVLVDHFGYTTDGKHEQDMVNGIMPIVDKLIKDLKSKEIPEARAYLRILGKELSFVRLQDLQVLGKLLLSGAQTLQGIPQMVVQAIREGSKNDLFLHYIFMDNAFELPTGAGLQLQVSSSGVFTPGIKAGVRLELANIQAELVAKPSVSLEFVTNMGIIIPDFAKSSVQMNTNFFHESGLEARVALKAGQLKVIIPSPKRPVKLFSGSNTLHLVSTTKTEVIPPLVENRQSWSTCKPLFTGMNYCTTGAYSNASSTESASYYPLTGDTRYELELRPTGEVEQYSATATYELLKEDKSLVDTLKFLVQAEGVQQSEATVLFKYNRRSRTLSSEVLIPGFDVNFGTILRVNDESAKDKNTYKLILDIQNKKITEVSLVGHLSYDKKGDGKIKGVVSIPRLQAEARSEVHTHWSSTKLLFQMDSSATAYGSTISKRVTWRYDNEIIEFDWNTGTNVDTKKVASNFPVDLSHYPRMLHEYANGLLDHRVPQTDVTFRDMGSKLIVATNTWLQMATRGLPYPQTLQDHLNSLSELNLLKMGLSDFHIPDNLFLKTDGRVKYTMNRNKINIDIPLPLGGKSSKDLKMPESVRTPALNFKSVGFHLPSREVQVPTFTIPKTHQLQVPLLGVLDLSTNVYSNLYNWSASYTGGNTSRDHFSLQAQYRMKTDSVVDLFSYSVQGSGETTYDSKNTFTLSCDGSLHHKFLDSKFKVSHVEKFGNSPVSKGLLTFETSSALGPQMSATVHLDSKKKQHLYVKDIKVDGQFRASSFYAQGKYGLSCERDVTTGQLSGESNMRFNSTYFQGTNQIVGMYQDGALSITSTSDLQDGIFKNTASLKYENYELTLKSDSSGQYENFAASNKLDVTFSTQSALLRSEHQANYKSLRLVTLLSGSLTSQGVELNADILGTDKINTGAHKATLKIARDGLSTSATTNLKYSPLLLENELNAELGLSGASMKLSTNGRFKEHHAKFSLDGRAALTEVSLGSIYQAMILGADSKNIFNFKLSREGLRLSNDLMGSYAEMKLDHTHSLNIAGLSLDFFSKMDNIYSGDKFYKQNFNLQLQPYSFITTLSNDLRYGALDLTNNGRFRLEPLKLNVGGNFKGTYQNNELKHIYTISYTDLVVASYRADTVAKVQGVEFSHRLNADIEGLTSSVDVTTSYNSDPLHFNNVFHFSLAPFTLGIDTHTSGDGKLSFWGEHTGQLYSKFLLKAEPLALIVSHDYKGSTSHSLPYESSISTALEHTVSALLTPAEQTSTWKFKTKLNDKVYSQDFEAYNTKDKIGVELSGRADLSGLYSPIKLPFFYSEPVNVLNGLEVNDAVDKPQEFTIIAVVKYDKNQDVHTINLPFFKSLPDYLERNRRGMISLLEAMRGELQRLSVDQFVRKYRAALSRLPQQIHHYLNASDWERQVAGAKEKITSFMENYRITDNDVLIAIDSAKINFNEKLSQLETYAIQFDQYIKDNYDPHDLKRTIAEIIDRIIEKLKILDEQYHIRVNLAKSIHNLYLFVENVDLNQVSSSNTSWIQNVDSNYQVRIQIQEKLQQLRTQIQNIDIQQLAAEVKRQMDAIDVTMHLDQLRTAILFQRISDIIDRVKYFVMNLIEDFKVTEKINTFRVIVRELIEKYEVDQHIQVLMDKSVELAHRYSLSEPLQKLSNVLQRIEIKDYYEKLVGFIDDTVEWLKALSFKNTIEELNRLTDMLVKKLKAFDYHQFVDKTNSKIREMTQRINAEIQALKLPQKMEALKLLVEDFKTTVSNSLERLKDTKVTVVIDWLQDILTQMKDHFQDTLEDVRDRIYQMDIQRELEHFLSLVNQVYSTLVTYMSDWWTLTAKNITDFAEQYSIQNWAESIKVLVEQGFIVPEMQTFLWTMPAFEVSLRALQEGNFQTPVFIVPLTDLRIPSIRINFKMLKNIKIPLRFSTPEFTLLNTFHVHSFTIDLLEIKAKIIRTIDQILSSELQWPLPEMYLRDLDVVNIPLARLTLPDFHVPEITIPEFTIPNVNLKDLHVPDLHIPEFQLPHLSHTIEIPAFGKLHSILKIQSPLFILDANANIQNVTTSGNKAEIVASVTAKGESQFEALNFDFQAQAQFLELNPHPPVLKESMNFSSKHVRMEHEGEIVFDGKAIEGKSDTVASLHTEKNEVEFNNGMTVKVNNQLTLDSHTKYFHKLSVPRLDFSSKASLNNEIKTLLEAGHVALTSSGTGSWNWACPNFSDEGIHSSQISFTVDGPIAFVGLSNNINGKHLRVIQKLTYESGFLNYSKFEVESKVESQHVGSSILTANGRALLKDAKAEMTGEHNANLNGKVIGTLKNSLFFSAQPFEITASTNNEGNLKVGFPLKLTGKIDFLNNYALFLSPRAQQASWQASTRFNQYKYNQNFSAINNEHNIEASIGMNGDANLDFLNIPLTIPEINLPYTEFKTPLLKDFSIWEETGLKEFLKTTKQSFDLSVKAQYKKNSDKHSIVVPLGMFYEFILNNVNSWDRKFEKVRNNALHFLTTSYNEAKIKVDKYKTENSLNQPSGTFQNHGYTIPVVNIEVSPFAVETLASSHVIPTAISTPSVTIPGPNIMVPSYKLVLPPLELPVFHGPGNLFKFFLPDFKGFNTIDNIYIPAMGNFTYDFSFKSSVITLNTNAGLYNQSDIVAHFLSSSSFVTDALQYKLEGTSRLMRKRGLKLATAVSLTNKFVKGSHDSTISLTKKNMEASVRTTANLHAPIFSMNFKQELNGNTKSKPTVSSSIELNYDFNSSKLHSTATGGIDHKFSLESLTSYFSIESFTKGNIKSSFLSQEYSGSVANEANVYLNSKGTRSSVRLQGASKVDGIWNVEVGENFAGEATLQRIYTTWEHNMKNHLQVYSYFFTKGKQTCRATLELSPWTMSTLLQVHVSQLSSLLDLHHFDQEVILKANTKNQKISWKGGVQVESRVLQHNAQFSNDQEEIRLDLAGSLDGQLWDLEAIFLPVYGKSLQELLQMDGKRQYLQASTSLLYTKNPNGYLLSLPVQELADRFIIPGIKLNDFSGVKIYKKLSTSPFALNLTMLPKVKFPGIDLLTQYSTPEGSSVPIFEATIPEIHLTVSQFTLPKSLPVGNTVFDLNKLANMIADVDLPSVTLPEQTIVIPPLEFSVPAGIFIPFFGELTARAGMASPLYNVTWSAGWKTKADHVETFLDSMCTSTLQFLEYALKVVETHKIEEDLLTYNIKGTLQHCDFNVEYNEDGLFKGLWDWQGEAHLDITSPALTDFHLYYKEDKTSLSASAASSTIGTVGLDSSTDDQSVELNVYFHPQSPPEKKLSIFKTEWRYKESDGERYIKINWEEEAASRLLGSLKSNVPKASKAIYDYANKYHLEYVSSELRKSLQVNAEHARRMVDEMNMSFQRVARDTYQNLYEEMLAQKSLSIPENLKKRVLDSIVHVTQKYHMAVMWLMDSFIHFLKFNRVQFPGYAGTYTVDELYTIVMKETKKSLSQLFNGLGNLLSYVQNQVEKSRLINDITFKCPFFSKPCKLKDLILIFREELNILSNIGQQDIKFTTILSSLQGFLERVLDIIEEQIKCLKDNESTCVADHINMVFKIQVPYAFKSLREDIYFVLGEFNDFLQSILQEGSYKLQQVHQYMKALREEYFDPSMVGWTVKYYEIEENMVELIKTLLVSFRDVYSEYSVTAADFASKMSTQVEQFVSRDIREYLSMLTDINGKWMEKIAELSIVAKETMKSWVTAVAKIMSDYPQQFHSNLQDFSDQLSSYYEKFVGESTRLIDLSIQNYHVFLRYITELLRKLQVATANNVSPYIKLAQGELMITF
UniProt P23804: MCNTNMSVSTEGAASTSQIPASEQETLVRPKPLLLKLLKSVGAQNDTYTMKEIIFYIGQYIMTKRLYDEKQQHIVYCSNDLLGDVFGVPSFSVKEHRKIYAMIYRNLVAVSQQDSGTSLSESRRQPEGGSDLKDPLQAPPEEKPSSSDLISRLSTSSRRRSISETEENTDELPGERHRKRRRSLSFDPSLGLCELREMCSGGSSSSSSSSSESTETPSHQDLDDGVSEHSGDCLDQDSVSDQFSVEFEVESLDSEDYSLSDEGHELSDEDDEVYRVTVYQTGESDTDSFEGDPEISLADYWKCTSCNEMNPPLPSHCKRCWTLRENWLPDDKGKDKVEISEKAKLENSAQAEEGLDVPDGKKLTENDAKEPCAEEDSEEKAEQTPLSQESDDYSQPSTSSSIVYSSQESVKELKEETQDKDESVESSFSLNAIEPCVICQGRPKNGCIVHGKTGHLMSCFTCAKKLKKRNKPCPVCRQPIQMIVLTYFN
UniProt Q00987: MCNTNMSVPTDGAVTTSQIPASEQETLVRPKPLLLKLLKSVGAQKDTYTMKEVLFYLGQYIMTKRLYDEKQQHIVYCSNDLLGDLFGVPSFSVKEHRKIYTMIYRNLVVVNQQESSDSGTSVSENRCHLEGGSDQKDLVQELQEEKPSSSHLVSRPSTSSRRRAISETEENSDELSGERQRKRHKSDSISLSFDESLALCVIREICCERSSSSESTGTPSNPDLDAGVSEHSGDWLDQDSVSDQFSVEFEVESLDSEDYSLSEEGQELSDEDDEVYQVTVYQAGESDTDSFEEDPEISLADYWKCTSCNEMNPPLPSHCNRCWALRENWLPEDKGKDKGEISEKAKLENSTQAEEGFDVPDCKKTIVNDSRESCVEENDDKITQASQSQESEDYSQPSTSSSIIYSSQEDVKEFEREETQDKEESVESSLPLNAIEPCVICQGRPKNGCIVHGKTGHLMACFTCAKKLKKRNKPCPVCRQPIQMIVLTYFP

For assay [2] the target is unchanged. The experiment in a line: co-IP; C57BL/6J mouse liver lysate (50 mM Tris-HCl pH 7.5, 250 mM NaCl, 1% NP-40, 1 mM EDTA, 1 mM DTT); ApoB antibody or rabbit IgG at 4 °C overnight, Protein A agarose, immunoblot of MDM2.
The target in assay [3] is Apolipoprotein B (ApoB), endogenous in HepG2 cells (human (endogenous in HepG2)) (UniProt P04114). The experiment in a line: co-IP; HepG2 lysate (50 mM Tris-HCl pH 7.5, 250 mM NaCl, 1% NP-40, 1 mM EDTA, 1 mM DTT); ApoB antibody or rabbit IgG at 4 °C overnight, Protein A agarose, immunoblot of MDM2; cells untreated or treated with oleic acid (0.4 mM) or stearic acid (0.4 mM), which reduced the interaction.

For assay [4] the target is unchanged. The experiment in a line: co-IP; HepG2 cells treated with Nutlin-3a (10 × 10^-6 M) before lysis; co-immunoprecipitation of ApoB and MDM2 as for untreated cells.
The next assay addresses T1, ApoB-3419-4018 (human) (UniProt P04114).
T1 sequence: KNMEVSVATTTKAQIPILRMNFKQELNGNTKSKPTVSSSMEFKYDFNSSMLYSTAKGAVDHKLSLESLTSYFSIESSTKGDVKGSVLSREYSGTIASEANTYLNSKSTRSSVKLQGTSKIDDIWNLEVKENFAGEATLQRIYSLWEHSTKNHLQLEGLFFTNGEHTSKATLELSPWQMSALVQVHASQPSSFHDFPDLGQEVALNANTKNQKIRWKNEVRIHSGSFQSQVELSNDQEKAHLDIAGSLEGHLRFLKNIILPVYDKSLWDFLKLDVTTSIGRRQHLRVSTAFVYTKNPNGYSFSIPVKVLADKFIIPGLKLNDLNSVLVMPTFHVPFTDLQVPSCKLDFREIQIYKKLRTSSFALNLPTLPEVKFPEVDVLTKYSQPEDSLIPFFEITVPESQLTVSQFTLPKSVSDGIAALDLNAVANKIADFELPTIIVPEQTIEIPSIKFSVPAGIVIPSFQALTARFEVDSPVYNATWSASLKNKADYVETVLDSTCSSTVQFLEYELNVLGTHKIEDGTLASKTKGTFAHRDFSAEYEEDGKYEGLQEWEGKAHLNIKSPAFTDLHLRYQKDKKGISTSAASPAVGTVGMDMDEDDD
The experiment in a line: co-IP; HEK293 cells co-transfected with Myc-tagged MDM2 and FLAG-tagged truncated ApoB or its mutants; lysates on anti-FLAG agarose beads at 4 °C for 2 h; immunoblot of FLAG and Myc.

In another assay the target is T2, ApoB-1-624 (human) (UniProt P04114).
T2 sequence: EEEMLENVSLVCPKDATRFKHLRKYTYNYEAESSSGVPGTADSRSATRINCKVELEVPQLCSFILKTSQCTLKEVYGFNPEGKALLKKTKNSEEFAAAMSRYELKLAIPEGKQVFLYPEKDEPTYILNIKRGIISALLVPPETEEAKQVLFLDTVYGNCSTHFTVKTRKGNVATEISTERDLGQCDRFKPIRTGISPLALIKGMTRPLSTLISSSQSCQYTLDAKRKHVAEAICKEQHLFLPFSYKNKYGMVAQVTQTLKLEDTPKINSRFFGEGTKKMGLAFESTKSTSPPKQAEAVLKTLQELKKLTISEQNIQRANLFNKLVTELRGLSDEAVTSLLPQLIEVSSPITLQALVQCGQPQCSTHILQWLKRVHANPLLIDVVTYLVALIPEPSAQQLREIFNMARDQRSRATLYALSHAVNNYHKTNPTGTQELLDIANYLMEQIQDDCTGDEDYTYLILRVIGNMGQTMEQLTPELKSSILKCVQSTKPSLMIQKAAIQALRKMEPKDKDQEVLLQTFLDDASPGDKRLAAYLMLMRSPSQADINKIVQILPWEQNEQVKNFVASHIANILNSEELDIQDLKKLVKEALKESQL
Described as above.

No constants are given. Whether binding was seen depends on the method and setting. In cells and extracts the contact can be indirect. Some entries that bind do so weakly or less than the wild type.

As to “murine double minute 2 (MDM2), endogenous in mouse liver and primary hepatocytes (from UniProt P23804 1-489)”, the binding entry in assay [1] and in assay [2] was “binds” in each case.
“murine double minute 2 (MDM2), endogenous in HepG2 cells (from UniProt Q00987 1-491)”: the binding entry in assay [3] is “binds”; in assay [4] it was “no binding (condition: with Nutlin-3a (10 × 10^-6 M))”.
As to “Myc-tagged MDM2 (from UniProt P23804 1-489)”, the binding result in the assay with ApoB-3419-4018 (human) and with ApoB-1-624 (human) was “binds” in each case.

Values taken from paper PMC9284139.
